Experimental data published in PubChem BioAssay AID743255 (National Center for Advancing Translational Sciences (NCATS), 2014).
Hit rate of the full screen: of about 390,000 compounds, about 910 (0.23%) were called active. Inconclusive means that the source gave no clear call. Such entries were picked first, then a sample of the others. Calls come from the whole dose curve; as a rule, active = well fitted inhibition curve with a large enough effect; inconclusive = small, poorly fitted or top-dose-only effect; inactive = no such curve, though single readings can be large or run the other way. Potencies beside an inconclusive call are fits to weak or partial responses and may not hold up.

By UniProt entry, the sequences of proteins in these tests, tags left out. Where a name states a change or a piece, a line headed by the entry shows the natural chain unless it says otherwise.
UniProt O94782: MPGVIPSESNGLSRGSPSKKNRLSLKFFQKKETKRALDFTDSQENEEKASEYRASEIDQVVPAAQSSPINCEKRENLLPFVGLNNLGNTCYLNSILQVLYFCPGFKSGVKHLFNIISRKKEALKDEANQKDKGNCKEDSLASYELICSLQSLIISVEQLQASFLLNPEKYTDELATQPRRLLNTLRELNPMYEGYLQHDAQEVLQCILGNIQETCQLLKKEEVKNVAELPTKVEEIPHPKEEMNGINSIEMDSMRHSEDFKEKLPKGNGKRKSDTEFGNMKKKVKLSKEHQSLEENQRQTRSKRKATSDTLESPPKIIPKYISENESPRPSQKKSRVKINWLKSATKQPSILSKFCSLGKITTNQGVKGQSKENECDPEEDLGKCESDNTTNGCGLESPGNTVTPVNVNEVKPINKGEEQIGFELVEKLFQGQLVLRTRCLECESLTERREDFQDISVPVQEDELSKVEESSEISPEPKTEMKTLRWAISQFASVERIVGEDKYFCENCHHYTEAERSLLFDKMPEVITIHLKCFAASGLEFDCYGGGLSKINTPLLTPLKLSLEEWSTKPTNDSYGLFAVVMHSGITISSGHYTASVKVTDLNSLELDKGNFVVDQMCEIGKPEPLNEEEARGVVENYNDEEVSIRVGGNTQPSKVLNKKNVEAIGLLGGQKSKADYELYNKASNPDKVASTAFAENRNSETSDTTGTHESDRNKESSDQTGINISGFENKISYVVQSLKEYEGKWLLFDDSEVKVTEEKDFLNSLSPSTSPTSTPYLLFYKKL

The compounds below were run against Ubiquitin carboxyl-terminal hydrolase 1 (Homo sapiens) (UniProt O94782) (assay: Inhibitors of USP1/UAF1: Primary Screen). Settings: recombinant USP1/UAF1, Ub-Rhodamine cleavage fluorescence; series mostly up to 57.1 µM.
How it was run: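 Step one: compound is pinned into 1nM USP1/UAF1 in HEPES pH 7.8 buffer with TCEP. Step two: 15 min room-temperature incubation. Step three: Ub-Rho (150nM final) starts cleavage, tracked by fluorescence over six one-minute reads.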
Note: nearly all actives have a fitted effect of over 60% in size.
Potency is the fitted concentration of half-maximal effect.

| Structure (SMILES) | Potency |
| --- | --- |
| COc1cc(C)ccc1OCCCn1c(-c2ccc(Cl)cc2)nc2ccccc2c1=O | inconclusive: 0.447 µM [inhibitor, full curve, poor fit] |
| CSc1sc(C(=O)NNC(C)=O)c2c1C=CCC2 | inconclusive: 50.1 µM [inhibitor, partial curve, poor fit] |
| CCc1nn(CC(=O)NC(C)CC)c(=O)c2cc3c(OC)cccc3n12 (configuration not stated) | inconclusive: 0.251 µM [inhibitor, full curve, poor fit] |
| COc1cc(NC(=O)c2nn(-c3ccc(C)cc3)c(=O)c3c2c2ccccc2n3C)cc(OC)c1OC | inconclusive: 0.224 µM [inhibitor, full curve, poor fit] |
| CC(C)S(=O)(=O)c1oc(-c2ccc(F)cc2)nc1S(=O)(=O)c1ccccc1 | inconclusive: 5.01 µM [inhibitor, full curve, poor fit] |
| Cc1cc2c(N)cccc2nn1 | inconclusive: 31.6 µM [inhibitor, partial curve] |
| CCCc1ccc(C2=Nn3c(nnc3C(C)C)SC2)cc1 | inconclusive: 50.1 µM [inhibitor, single point] |
| Cc1nn(-c2ccccc2)c(C)c1[N+](=O)[O-] | inactive |
| Cn1c(=O)c2cc(C(=O)N3CCN(c4cccc(C(F)(F)F)c4)CC3)sc2c2ccccc21 | inconclusive: 50.1 µM [inhibitor, single point] |
| O=C1CN(CC(=O)N2CCCCC2)c2ccccc2O1 | inconclusive: 44.7 µM [inhibitor, partial curve, poor fit] |
| COc1cccc(C(=O)Nc2c(C)n[nH]c2C)c1 | inconclusive: 50.1 µM [inhibitor, single point] |
| O=C(N/N=C/c1cccc(O)c1)C(=O)N1CCCCCC1 | inconclusive: 2 µM [inhibitor, partial curve] |
| COc1ccc(C=CC(=O)c2c(OC)cc(OC)c(OC)c2O)cc1 | inconclusive: 12.6 µM [inhibitor, partial curve] |
| COc1cccc2nc3cc(C)c(C)cc3nc12 | inconclusive: 31.6 µM [inhibitor, single point] |
| CCc1ccccc1NC(=O)CSc1nc(C)c(C(=O)Nc2ccccc2)c(-c2ccc(Cl)cc2)c1C#N | inconclusive: 31.6 µM [inhibitor, partial curve, poor fit] |
| CCN(CC)S(=O)(=O)c1ccc(NC(=O)c2ccc3c(=O)n4c(nc3c2)CCCCC4)cc1 | inconclusive: 0.708 µM [inhibitor, full curve, poor fit] |
| CCOc1ccccc1N(C)C(=O)c1cc(S(=O)(=O)NCCc2ccc(Cl)cc2)ccc1F | inactive |
| COc1ccc(S(=O)(=O)CC(=O)c2cc3cccc(C)c3oc2=O)cc1 | inactive |
| O=C(CCn1c(=O)c2cccn2c2cccnc21)Nc1ccccc1Br | inconclusive: 17.8 µM [inhibitor, partial curve] |
| Cc1noc(C)c1NC(=O)N(C)C[C@@H]1OCc2ccccc2-c2c(n(C)c3ccccc23)C(=O)N([C@H](C)CO)C[C@H]1C | inconclusive: 0.251 µM [inhibitor, full curve, poor fit] |
| CCNc1cc2n(c(=O)n1)CCc1cc(OC)c(OC)cc1-2 | inactive |

In the list so far, these have a Cl atom:

| Structure (SMILES) | Potency |
| --- | --- |
| COc1cc(C)ccc1OCCCn1c(-c2ccc(Cl)cc2)nc2ccccc2c1=O | inconclusive: 0.447 µM [inhibitor, full curve, poor fit] |
| CCc1ccccc1NC(=O)CSc1nc(C)c(C(=O)Nc2ccccc2)c(-c2ccc(Cl)cc2)c1C#N | inconclusive: 31.6 µM [inhibitor, partial curve, poor fit] |
| CCOc1ccccc1N(C)C(=O)c1cc(S(=O)(=O)NCCc2ccc(Cl)cc2)ccc1F | inactive |

(further entries)

| Structure (SMILES) | Potency |
| --- | --- |
| CC(=O)Nc1ccc(Nc2ncnc3c2cnn3-c2ccc(C)cc2C)cc1 | inactive |
| CN(Cc1nc(Cc2cccc(F)c2)no1)CC1CCOCC1 | inconclusive: 0.891 µM [inhibitor, full curve] |
| COC(=O)c1ccccc1-c1ccc(C(c2c(C)[nH][nH]c2=O)c2c(C)[nH][nH]c2=O)o1 | inconclusive: 39.8 µM [inhibitor, partial curve, poor fit] |
| CC(CO)Nc1nc(SCc2ccccc2)nc2sc3c(c12)CCC3 (configuration not stated) | inconclusive: 44.7 µM [inhibitor, partial curve] |
| COc1ccc(C2=NCC(CSc3nnc(-c4ccc5c(c4)OCO5)o3)S2)cc1 (configuration not stated) | inconclusive: 44.7 µM [inhibitor, partial curve, poor fit] |
| Cc1sc2ncnc(NCC(c3ccccc3)N(C)C)c2c1C (configuration not stated) | inconclusive: 39.8 µM [inhibitor, partial curve, poor fit] |
| COc1cccc(C(c2sc3nc(-c4ccco4)nn3c2O)N2CCOCC2)c1 (configuration not stated) | inactive |
| CCOc1ccccc1NC(=O)Cn1cnc2c1c(=O)n(C)c(=O)n2C | inactive |
| COC(=O)c1ccc(-c2ccc(OC)c([C@H]3[C@H]4C=CC[C@@H](C)[C@@H]4C(=O)N3Cc3ccccc3)c2)cc1 | inconclusive: 0.251 µM [inhibitor, full curve, poor fit] |
| Cc1ccc(S(=O)(=O)Oc2cccc(/C=N/n3cnnc3)c2)cc1 | inactive |
| COc1cccc(CNC(=O)c2sc3nc4n(c(=O)c3c2C)CCC4)c1 | inactive |
| COc1ccc(-n2ccc3ccccc32)cc1 | inactive |
| Cc1c(C(=O)Nc2ccc(F)cc2F)oc2ccc3c(c12)C(=O)CC(C)(C)O3 | inactive |
| COc1cc(S(=O)(=O)Nc2ccc(C)cc2)ccc1N=Cc1c(C)c(C#N)c(=O)n(C)c1O | inconclusive: 35.5 µM [inhibitor, partial curve, poor fit] |
| CC(OC(=O)c1cc(O)c2ccccc2c1O)C(=O)Nc1ccc(C(N)=O)cc1 (configuration not stated) | inconclusive: 31.6 µM [inhibitor, partial curve] |
| CC(C)OCCCNc1sc(S(=O)(=O)c2ccccc2)nc1S(=O)(=O)c1ccc(Cl)cc1 | inconclusive: 50.1 µM [inhibitor, partial curve, poor fit] |
| O=C(NCc1ccco1)c1ccc(Cn2c(=O)c3ccccc3n(Cc3cccc(Cl)c3)c2=O)cc1 | inconclusive: 31.6 µM [inhibitor, partial curve] |
| O=C(Cn1c(SCCOc2ccccc2)nc2ccccc21)N1CCOCC1 | inactive |
| Cc1cc(Nc2ccc(F)cc2Cl)n2nc(C)nc2n1 | inconclusive: 20 µM [inhibitor, partial curve] |
| CCN(CC)CCCN=C(N)N | inconclusive: 28.2 µM [inhibitor, partial curve] |
| CC(=O)N1CCc2cc(CNC(=O)Cc3ccc(F)cc3)ccc21 | inconclusive: 70.8 µM [inhibitor, partial curve, poor fit] |
